Laboratory results as given in the supplement of paper PMC10849652.
The other results are listed elsewhere or left out. Residues, ends and D or L forms follow the SMILES beside them. *: point of attachment. Cbz = O=C(OCc1ccccc1)*

Sequences of proteins named here, by UniProt entry; tags and fusion partners are left off. A change or cut given only in a name is not applied to a line headed by its entry.
UniProt Q9UL63, whole entry, looked up: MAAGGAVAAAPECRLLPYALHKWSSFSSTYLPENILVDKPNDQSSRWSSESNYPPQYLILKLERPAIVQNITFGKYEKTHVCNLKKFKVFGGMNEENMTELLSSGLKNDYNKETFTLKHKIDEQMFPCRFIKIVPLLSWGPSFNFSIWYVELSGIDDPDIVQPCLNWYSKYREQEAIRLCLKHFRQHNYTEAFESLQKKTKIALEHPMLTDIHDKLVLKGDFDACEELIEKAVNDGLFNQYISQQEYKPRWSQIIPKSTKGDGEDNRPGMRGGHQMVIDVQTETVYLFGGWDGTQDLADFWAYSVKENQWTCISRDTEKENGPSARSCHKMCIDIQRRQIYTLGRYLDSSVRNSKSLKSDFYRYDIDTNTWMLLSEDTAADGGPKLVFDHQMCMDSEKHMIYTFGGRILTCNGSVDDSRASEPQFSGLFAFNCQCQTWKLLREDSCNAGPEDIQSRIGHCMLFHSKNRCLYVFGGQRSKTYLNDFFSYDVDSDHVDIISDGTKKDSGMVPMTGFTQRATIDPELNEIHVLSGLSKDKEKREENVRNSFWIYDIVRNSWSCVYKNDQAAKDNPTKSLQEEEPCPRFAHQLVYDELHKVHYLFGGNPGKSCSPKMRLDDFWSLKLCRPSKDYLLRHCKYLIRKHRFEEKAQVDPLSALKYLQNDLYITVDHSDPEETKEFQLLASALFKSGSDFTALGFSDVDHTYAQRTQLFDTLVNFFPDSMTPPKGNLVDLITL
UniProt Q9NXC5: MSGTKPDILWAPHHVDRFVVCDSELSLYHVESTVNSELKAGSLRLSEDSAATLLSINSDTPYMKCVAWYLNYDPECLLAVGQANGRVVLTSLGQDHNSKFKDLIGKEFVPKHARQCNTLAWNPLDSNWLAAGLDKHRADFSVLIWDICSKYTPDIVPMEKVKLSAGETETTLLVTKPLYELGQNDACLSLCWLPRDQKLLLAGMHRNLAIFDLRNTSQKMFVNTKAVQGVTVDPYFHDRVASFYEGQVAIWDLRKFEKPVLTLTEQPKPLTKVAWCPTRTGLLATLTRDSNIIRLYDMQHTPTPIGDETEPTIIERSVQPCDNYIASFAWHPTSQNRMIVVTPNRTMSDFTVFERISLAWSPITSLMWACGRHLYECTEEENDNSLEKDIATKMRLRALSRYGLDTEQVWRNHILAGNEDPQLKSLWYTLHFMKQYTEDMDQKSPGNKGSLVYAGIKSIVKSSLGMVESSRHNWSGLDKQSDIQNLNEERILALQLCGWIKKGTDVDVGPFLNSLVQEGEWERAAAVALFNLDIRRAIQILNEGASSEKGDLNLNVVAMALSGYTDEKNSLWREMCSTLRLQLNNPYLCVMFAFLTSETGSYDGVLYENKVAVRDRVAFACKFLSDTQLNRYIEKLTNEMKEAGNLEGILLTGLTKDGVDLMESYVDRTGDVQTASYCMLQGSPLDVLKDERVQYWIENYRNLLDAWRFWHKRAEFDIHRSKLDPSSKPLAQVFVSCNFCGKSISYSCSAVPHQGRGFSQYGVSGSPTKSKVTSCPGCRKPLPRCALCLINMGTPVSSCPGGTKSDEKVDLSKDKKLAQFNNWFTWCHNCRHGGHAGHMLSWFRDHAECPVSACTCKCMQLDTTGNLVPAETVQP
UniProt Q8NHP6: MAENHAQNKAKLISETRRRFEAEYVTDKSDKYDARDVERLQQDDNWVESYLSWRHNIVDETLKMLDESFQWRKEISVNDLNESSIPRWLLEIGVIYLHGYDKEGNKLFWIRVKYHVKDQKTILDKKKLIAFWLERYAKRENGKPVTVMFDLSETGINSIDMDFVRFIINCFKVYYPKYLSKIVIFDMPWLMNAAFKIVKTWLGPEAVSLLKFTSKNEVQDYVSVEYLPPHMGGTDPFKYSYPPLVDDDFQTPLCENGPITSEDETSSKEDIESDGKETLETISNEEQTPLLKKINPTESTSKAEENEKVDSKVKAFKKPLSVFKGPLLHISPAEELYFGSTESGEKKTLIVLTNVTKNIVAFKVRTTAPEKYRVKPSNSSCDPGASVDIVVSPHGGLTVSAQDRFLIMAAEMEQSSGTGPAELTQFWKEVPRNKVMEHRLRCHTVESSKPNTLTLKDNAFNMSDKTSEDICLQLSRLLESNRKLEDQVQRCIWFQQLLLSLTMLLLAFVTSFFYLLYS
UniProt Q8TAP9: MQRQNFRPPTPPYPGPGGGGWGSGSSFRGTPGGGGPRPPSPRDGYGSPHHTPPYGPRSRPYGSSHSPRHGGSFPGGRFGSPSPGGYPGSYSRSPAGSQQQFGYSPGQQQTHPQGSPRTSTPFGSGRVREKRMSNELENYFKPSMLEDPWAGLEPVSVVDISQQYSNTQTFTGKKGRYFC
UniProt A9UHW6: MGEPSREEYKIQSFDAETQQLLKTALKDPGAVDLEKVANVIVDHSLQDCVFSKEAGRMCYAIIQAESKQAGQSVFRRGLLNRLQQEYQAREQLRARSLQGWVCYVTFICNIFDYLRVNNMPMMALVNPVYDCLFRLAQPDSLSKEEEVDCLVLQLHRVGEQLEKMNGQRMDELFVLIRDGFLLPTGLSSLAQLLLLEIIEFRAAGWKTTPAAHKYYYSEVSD
UniProt Q9NZB8: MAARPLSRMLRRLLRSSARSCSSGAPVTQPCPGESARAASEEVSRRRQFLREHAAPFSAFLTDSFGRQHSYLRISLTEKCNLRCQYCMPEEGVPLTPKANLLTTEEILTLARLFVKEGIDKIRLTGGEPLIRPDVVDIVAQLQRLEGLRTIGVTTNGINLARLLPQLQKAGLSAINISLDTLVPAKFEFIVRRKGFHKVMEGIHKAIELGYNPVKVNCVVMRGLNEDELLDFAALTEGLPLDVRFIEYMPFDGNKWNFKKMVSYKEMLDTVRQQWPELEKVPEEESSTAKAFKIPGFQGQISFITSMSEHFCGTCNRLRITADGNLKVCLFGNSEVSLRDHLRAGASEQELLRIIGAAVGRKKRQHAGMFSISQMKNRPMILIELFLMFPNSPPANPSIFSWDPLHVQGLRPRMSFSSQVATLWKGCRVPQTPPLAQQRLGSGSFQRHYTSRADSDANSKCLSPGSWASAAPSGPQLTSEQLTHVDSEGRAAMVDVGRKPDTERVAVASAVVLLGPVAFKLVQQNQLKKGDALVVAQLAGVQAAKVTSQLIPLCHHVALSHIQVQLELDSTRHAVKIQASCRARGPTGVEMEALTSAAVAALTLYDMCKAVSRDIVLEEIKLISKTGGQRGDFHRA
UniProt Q9HC36: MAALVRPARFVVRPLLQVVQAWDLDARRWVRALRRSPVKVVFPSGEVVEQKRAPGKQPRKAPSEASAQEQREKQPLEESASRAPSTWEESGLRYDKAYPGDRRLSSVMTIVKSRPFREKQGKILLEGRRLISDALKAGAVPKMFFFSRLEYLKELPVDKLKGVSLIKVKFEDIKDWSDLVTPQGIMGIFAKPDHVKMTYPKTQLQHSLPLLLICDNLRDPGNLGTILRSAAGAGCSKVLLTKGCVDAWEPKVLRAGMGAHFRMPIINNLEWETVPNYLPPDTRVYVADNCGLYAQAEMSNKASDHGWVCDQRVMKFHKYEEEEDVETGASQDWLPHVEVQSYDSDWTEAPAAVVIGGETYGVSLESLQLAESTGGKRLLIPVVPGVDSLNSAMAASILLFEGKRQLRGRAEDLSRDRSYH
UniProt Q8N4V1: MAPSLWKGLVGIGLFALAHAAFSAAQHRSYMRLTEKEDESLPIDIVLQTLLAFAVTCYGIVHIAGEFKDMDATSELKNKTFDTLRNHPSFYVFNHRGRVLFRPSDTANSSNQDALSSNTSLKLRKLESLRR

Experiments:
Test in all cases: log2 fold change, soluble protein after heating vs DMSO (PISA); higher = thermal stabilisation; K562 cells, 10 uM, 30 min; active = over 0.2 and 3.5 SD of the protein, either way, in both replicates (recomputed)
erlotinib = compound: C#Cc1cccc(Nc2ncnc3cc(OCCOC)c(OCCOC)cc23)c1 [erlotinib]
Outline: (§1)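 Soluble protein was quantified by TMTpro 16plex LC-MS/MS after channel sums were equalised. It was obtained as the supernatant after 21,000xg for 90 min from pooled aliquots of K562 cells (2×10^6 cells/mL, 10 μM compound, 30 min) heated for 3 min across 48°C-58°C and extracted in PBS with 0.5% NP-40 at 4°C. Thermal stability values are relative to control samples and come from duplicates. They are given as log2 fold changes.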

[1] = compound: C/C(=N\NC(=O)C1=CC(=CC=C1)S(=O)(=O)N2CCOCC2)/C3=C(C=CC(=C3)Cl)O
Outline: as §1

[2] = compound: C1=CC(=C(C=C1Cl)C2=NC3=NC=CN=C3C(=N2)NC4=CC=NC=C4)F
Outline: as §1

[3] = compound: C1=CC(=CC=C1C2=NC3=C(N2)C=C(C=C3)C(=O)N)OC4=CC=C(C=C4)Cl
Outline: as §1

[4] = compound: C1=CC2=C(C=CC(=C2)/C=C\3/C(=O)NC(=NCC4=CC=CS4)S3)N=C1
Outline: as §1

[5] = compound: C1=CC2=NC=CN=C2C=C1/C=C/3\C(=O)NC(=O)S3
Outline: as §1

[6] = compound: C1=CC=C(C=C1)C2=NC(=C(N2)C3=CC=NC=C3)C4=CC(=C(C=C4)Cl)O
Outline: as §1

[7] = compound: C1=CC=C2C(=C1)C3=NNC4=CC=CC(=C43)C2=O
Outline: as §1

[8] = compound: C1CCN(C1)C(=O)NC2=CC=CC(=C2)NC3=NC=C(C(=N3)NCCC4=CN=CN4)Br
Outline: as §1

[9] = compound: C1CN(CCC1(CC2=CC=C(C=C2)Cl)N)C3=NC=NC4=C3C=CN4
Outline: as §1

IRAK-1-4 Inhibitor I = compound: C1COCCN1CCN2C3=CC=CC=C3N=C2NC(=O)C4=CC(=CC=C4)[N+](=O)[O-] [IRAK-1-4 Inhibitor I]
Outline: as §1

ibrutinib = compound: C=CC(=O)N1CCC[C@@H](n2nc(-c3ccc(Oc4ccccc4)cc3)c3c(N)ncnc32)C1 [ibrutinib]
Outline: as §1

[10] = compound: CC(=O)c1cnc2ccc(-c3cc(Cl)c(O)c(Cl)c3)nc2c1N[C@H]1CC[C@H](CN(C)C)CC1
Outline: as §1

ralimetinib = compound: CC(C)(C)Cn1c(N)nc2ccc(-c3[nH]c(C(C)(C)C)nc3-c3ccc(F)cc3)nc21 [ralimetinib]
Outline: as §1

[11] = compound: CC(C)(O)CC(=O)NCCn1ccc2ncnc(Nc3ccc(Oc4cccc(C(F)(F)F)c4)c(Cl)c3)c21
Outline: as §1

[12] = compound: CC(C)C1=C2N=C(C=C(N2N=C1)NCC3=CC=CC=C3)NCCCCCCN
Outline: as §1

[13] = compound: CC(C)C[C@@H](C=O)NC(=O)[C@H](CC(C)C)NC(=O)[C@H](CC(C)C)NC(=O)OCc1ccccc1
Outline: as §1

pinometostat = compound: CC(C)N(C[C@H]1O[C@@H](n2cnc3c(N)ncnc32)[C@H](O)[C@@H]1O)[C@H]1C[C@@H](CCc2nc3cc(C(C)(C)C)ccc3[nH]2)C1 [pinometostat]
Outline: as §1

[14] = compound: CC1=C(C(CC(=O)N1)C2=CC=C(C=C2)C(F)(F)F)C(=O)NC3=C(C=C4C(=C3)C=NN4)F
Outline: as §1

[15] = compound: CC1=C(C2=C(C=C1)C(=O)C3=CC=CC=C3N2CCCN)C
Outline: as §1

Measured: log2 fold change

MKLN1 (UniProt Q9UL63)
inactive: erlotinib -0.057 | [1] 0.002 | [2] -0.012 | [3] 0.031 | [4] -0.039 | [5] 0.026 | [6] 0.049 | [7] -0.018 | [8] -0.024 | [9] -0.016 | IRAK-1-4 Inhibitor I -0.041 | ibrutinib -0.033 | [10] 0.006 | ralimetinib 0.097 | [11] -0.014 | [12] -0.003 | [13] -0.004 | pinometostat 0.01 | [14] 0.013 | [15] -0.025

MIOS (UniProt Q9NXC5)
inactive: erlotinib -0.023 | [1] -0.01 | [2] -0.056 | [3] 0.02 | [4] -0.029 | [5] 0.013 | [6] -0.037 | [7] -0.052 | [8] 0.019 | [9] -0.038 | IRAK-1-4 Inhibitor I -0.096 | ibrutinib 0.007 | [10] -0.016 | ralimetinib 0.056 | [11] 0.022 | [12] 0.066 | [13] 0.057 | pinometostat 0.01 | [14] 0.008 | [15] 0.031

MOSPD2 (UniProt Q8NHP6)
inactive: erlotinib 0.02 | [1] 0.085 | [2] -0.015 | [3] 0.006 | [4] -0.036 | [5] 0.042 | [6] 0.07 | [7] -0.006 | [8] -0.011 | [9] 0.013 | IRAK-1-4 Inhibitor I -0.008 | ibrutinib 0.134 | [10] -0.025 | ralimetinib -0.038 | [11] 0.087 | [12] 0.042 | [13] 0.108 | pinometostat 0.069 | [14] 0.011 | [15] -0.012

MKI67 (UniProt P46013)
inactive: erlotinib 0.044 | [1] 0.002 | [2] -0.161 | [3] -0.013 | [4] -0.04 | [5] 0.142 | [6] 0 | [7] 0.037 | [8] -0.002 | [9] 0.028 | IRAK-1-4 Inhibitor I -0.026 | ibrutinib -0.036 | [10] -0.08 | ralimetinib 0.038 | [11] 0.015 | [12] -0.161 | [13] -0.042 | pinometostat 0.074 | [14] 0.117 | [15] 0.129

MRPL1 (UniProt Q9BYD6)
inactive: erlotinib -0.057 | [1] -0.138 | [2] -0.193 | [3] 0.032 | [4] -0.083 | [5] -0.003 | [6] 0.012 | [7] 0.086 | [8] -0.012 | [9] -0.258 | IRAK-1-4 Inhibitor I -0.09 | ibrutinib 0.014 | [10] 0.058 | ralimetinib 0.032 | [11] 0.047 | [12] -0.077 | [13] 0.356 | pinometostat 0.111 | [14] 0.001 | [15] -0.236

MRPL27 (UniProt Q9P0M9)
inactive: erlotinib 0.012 | [1] 0.027 | [2] -0.078 | [3] -0.005 | [4] -0.141 | [5] 0.048 | [6] -0.015 | [7] 0.148 | [8] 0.028 | [9] -0.177 | IRAK-1-4 Inhibitor I -0.011 | ibrutinib -0.028 | [10] 0.116 | ralimetinib 0.112 | [11] -0.028 | [12] 0.219 | [13] 0.06 | pinometostat 0.167 | [14] 0.074 | [15] -0.112

MPLKIP (UniProt Q8TAP9)
inactive: erlotinib 0.004 | [1] -0.048 | [2] -0.028 | [3] -0.259 | [4] -0.014 | [5] 0.017 | [6] -0.044 | [7] -0.01 | [8] 0.028 | [9] -0.078 | IRAK-1-4 Inhibitor I -0.002 | ibrutinib -0.051 | [10] -0.217 | ralimetinib -0.066 | [11] 0.016 | [12] 0.07 | [13] 0.02 | pinometostat 0.02 | [14] 0.048 | [15] 0.117

2 successive records out of the list so far, quoted:
MIOS (UniProt Q9NXC5)
inactive: erlotinib -0.023 | [1] -0.01 | [2] -0.056 | [3] 0.02 | [4] -0.029 | [5] 0.013 | [6] -0.037 | [7] -0.052 | [8] 0.019 | [9] -0.038 | IRAK-1-4 Inhibitor I -0.096 | ibrutinib 0.007 | [10] -0.016 | ralimetinib 0.056 | [11] 0.022 | [12] 0.066 | [13] 0.057 | pinometostat 0.01 | [14] 0.008 | [15] 0.031

MOSPD2 (UniProt Q8NHP6)
inactive: erlotinib 0.02 | [1] 0.085 | [2] -0.015 | [3] 0.006 | [4] -0.036 | [5] 0.042 | [6] 0.07 | [7] -0.006 | [8] -0.011 | [9] 0.013 | IRAK-1-4 Inhibitor I -0.008 | ibrutinib 0.134 | [10] -0.025 | ralimetinib -0.038 | [11] 0.087 | [12] 0.042 | [13] 0.108 | pinometostat 0.069 | [14] 0.011 | [15] -0.012

(cont.)

MRPL15 (UniProt Q9P015)
inactive: erlotinib -0.12 | [1] -0.101 | [2] -0.166 | [3] 0.07 | [4] 0.001 | [5] -0.012 | [6] 0.025 | [7] 0.073 | [8] -0.015 | [9] -0.159 | IRAK-1-4 Inhibitor I -0.274 | ibrutinib -0.002 | [10] 0.056 | ralimetinib 0.044 | [11] -0.008 | [12] -0.037 | [13] 0.106 | pinometostat 0.044 | [14] 0.052 | [15] -0.124

MRPL17 (UniProt Q9NRX2)
inactive: erlotinib -0.025 | [1] -0.044 | [2] -0.121 | [3] 0.117 | [4] -0.044 | [5] 0.019 | [6] -0.05 | [7] 0.075 | [8] 0.095 | [9] -0.115 | IRAK-1-4 Inhibitor I -0.106 | ibrutinib -0.049 | [10] 0.075 | ralimetinib 0 | [11] 0.002 | [12] -0.015 | [13] 0.12 | pinometostat 0.114 | [14] -0.012 | [15] 0.055

MIF4GD isoform 3 (UniProt A9UHW6)
inactive: erlotinib 0.032 | [1] -0.038 | [2] -0.03 | [3] -0.002 | [4] 0.084 | [5] 0.055 | [6] -0.015 | [7] 0.013 | [8] 0.004 | [9] -0.028 | IRAK-1-4 Inhibitor I -0.033 | ibrutinib -0.038 | [10] -0.133 | ralimetinib -0.049 | [11] 0.034 | [12] 0.061 | [13] 0.056 | pinometostat 0.027 | [14] 0.041 | [15] 0.064

MOCS1 isoform 8 (UniProt Q9NZB8)
inactive: erlotinib 0.06 | [1] -0.043 | [2] 0.055 | [3] -0.022 | [4] 0.041 | [5] 0.098 | [6] -0.044 | [7] -0.009 | [8] -0.031 | [9] 0.053 | IRAK-1-4 Inhibitor I 0.049 | ibrutinib 0.162 | [10] -0.095 | ralimetinib -0.052 | [11] -0.184 | [12] 0.025 | [13] 0.006 | pinometostat -0.077 | [14] 0.033 | [15] -0.032

MRPL24 (UniProt Q96A35)
inactive: erlotinib -0.216 | [1] -0.172 | [2] -0.167 | [3] 0.004 | [4] -0.084 | [5] 0.024 | [6] 0.016 | [7] 0.137 | [8] -0.106 | [9] -0.199 | IRAK-1-4 Inhibitor I -0.063 | ibrutinib -0.051 | [10] 0.041 | ralimetinib 0.087 | [11] 0.063 | [12] 0.138 | [13] 0.065 | pinometostat 0.175 | [14] -0.031 | [15] -0.043

MRM3 (UniProt Q9HC36)
inactive: erlotinib -0.097 | [1] -0.162 | [2] -0.389 | [3] 0.028 | [4] -0.008 | [5] -0.032 | [6] 0.136 | [7] -0.052 | [8] 0.038 | [9] -0.229 | IRAK-1-4 Inhibitor I -0.165 | ibrutinib 0.056 | [10] 0.108 | ralimetinib 0.25 | [11] 0.064 | [12] 0.018 | [13] 0.11 | pinometostat 0.441 | [14] -0.045 | [15] -0.42

MRPL10 isoform 2 (UniProt Q7Z7H8)
inactive: erlotinib -0.15 | [1] -0.099 | [2] -0.07 | [3] 0.083 | [4] 0.009 | [5] -0.024 | [6] -0.005 | [7] 0.098 | [8] -0.03 | [9] -0.23 | IRAK-1-4 Inhibitor I -0.12 | ibrutinib -0.006 | [10] -0.026 | ralimetinib -0.016 | [11] 0.002 | [12] -0.024 | [13] 0.052 | pinometostat 0.112 | [14] -0.01 | [15] -0.016

MRPL49 (UniProt Q13405)
inactive: erlotinib -0.05 | [1] -0.238 | [2] -0.059 | [3] 0.022 | [4] 0.06 | [5] 0.022 | [6] -0.104 | [7] 0.024 | [8] -0.008 | [9] -0.044 | IRAK-1-4 Inhibitor I -0.107 | ibrutinib -0.011 | [10] 0.05 | ralimetinib -0.155 | [11] -0.02 | [12] 0.054 | [13] 0.23 | pinometostat 0.105 | [14] 0.046 | [15] 0.068

MMGT1 (UniProt Q8N4V1)
inactive: erlotinib -0.001 | [1] 0.085 | [2] 0.106 | [3] 0.036 | [4] 0.104 | [5] -0.029 | [6] -0.049 | [7] -0.025 | [8] 0.012 | [9] -0.025 | IRAK-1-4 Inhibitor I 0.038 | ibrutinib -0.038 | [10] 0.028 | ralimetinib -0.007 | [11] -0.012 | [12] -0.01 | [13] -0.056 | pinometostat -0.031 | [14] -0.055 | [15] 0.063
